In this test the target is tDab2, C-terminal truncation of disabled-2 (residues 649–770) (UniProt P98082). Description: SEC-MALS; 100 µl of 2 mg/ml protein on Superdex 200 (30 × 1 cm), 150 mM NaCl, 50 mM Tris.HCl pH 7.5, 1 mM DTT, room temperature; both purified. For orientation: Size exclusion chromatography separates by hydrodynamic size, large species first.

No constants are given. Whether binding was seen depends on the method and setting.

B1: tDab2, C-terminal truncation of disabled-2 (residues 649–770) (domain or fragment, UniProt P98082 649-770)
chain: KDVKEMFKDFQLRQPPAVPARKGEQTSSGTLSAFASYFNSKVGIPQENADHDDFDANQLLNKINEPPKPAPRQVSLPVTKSTDNAFENPFFKDSFGSSQASVASSQPVSSEMYRDPFGNPFA
Turning to B1, the binding entry was “no binding (tested: 2 mg/ml)”.

Values taken from article PMC9342898.
